From US9518107B2, “Pharmaceutical compositions containing polypeptides derived from α-1 antitrypsin and methods of use thereof” (YISSUM RESEARCH DEVELOPMENT COMPANY OF THE HEBREW …, priority 2010, dated 2016)
At least one compound was matched to its structure with a doubt left.

Test system: Female NZBW/F1 mice
Assay: Spontaneous lupus-like syndrome in NZBW/F1 mice (second SLE model)
Format: in vivo
Details: dexamethasone treatment, dose not given; FIG. 11B

`C[C@@H]1C[C@H]2[C@@H]3CCC4=CC(=O)C=C[C@]4(C)[C@@]3(F)[C@@H](O)C[C@]2(C)[C@@]1(O)C(=O)CO` [dexamethasone, reference compound] was tested, and the proteinuria was “reduced proteinuria in a significant manner”.
